Results are given in words; binding and its absence hold for the method and conditions named. Sequences can lack the tags named with a protein.
Target: truncated SpoIIIJ-His6 starting at L122 (fragment "c", lacking TM1) (Bacillus subtilis) (UniProt Q01625)
Experiment: SDS-PAGE with or without reducing agent; purified protein in loading buffer with (100 mM) or without DTT; Coomassie staining or immunoblot with anti-His6; bands a and b cut out and run again; both purified

binding: no binding
B1: truncated SpoIIIJ-His6 starting at L122 (fragment "c", lacking TM1) (domain or fragment, Bacillus subtilis, UniProt Q01625 122-261, looked up)
chain: LFQKHGVNPLAGCFPILIQMPILIGFYHAIMRTQAISEHSFLWFDLGEKDPYYILPIVAGVATFVQQKLMMAGNAQQNPQMAMMLWIMPIMIIVFAINFPAALSLYWVVGNLFMIAQTFLIKGPDIKKNPEPQKAGGKKK
notes: SpoIIIJ, Bacillus subtilis; about 16 kDa product of cleavage at L122 in the cytoplasmic loop between TM1 and TM2: the rest of that loop to the end of the protein (includes TM2 with Cys134); Two species of about 15 kDa both start at L122; The cause of their different mobility is not known; also called band c; truncated SpoIIIJ monomer (lacking TM1); source: E. coli C43(DE3), proteolytic product …

Reference: paper PMC4136701, “A Conserved Cysteine Residue of Bacillus subtilis SpoIIIJ Is Important for Endospore Development” (PLoS ONE, 2014)
